Results reported in the supplement of paper PMC12823440, “Inhibitors supercharge kinase turnover through native proteolytic circuits” (Nature, 2025).
Counter-ions that a name gives are not always drawn. Some of the results follow. Hit calls seldom repeat between salt and free forms of one compound.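 Kinases were expressed as nanoluciferase fusions in K562 cells and luminescence was read every 4 h between 2 and 18 h as percent of control, DMSO set to 100% and a positive control to 0%. A time point counts as decreased when the signal drops significantly (2 sigma). The hit call is the authors' own, does not follow from the count of time points alone, and its rule is not shown.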

By UniProt entry, the sequences of proteins in these tests, tags left out. Where a name states a change or a piece, a line headed by the entry shows the natural chain unless it says otherwise.
UniProt P28482, whole entry: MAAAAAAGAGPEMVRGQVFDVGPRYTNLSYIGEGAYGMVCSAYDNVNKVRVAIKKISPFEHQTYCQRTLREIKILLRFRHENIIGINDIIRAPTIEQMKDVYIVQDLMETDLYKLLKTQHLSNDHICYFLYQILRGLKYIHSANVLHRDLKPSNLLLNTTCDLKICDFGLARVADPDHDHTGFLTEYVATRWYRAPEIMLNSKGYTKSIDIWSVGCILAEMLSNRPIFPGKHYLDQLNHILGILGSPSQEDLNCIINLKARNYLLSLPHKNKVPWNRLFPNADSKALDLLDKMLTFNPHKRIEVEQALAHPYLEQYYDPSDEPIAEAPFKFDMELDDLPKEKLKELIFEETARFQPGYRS
UniProt P31152, whole entry: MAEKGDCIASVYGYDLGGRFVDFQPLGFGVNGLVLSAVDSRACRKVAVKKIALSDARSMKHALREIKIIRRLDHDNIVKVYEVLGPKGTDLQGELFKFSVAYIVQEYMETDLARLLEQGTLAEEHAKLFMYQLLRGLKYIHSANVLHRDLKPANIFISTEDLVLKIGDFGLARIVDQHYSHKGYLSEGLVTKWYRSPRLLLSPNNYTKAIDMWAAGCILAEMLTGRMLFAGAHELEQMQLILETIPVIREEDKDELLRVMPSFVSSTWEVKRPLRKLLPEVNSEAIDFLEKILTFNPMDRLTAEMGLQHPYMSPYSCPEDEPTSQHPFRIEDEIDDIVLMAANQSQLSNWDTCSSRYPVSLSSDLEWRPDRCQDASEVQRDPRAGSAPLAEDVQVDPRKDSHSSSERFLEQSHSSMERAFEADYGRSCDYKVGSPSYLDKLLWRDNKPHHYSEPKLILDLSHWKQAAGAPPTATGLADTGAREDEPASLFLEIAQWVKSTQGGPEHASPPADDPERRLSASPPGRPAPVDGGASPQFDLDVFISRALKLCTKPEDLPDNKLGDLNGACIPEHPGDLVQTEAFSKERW
UniProt P49137, whole entry, looked up: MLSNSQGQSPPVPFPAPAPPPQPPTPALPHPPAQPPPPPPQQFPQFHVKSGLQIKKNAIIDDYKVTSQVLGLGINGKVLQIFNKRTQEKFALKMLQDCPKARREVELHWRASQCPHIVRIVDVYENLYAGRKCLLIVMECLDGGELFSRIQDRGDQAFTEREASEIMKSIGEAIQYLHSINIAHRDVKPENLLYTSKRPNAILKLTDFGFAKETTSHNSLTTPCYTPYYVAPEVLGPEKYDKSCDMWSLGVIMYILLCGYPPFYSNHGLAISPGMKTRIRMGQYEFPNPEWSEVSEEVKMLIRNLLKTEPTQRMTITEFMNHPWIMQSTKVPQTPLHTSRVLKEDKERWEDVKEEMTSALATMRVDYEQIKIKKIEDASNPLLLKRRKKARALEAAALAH
UniProt Q9BUB5: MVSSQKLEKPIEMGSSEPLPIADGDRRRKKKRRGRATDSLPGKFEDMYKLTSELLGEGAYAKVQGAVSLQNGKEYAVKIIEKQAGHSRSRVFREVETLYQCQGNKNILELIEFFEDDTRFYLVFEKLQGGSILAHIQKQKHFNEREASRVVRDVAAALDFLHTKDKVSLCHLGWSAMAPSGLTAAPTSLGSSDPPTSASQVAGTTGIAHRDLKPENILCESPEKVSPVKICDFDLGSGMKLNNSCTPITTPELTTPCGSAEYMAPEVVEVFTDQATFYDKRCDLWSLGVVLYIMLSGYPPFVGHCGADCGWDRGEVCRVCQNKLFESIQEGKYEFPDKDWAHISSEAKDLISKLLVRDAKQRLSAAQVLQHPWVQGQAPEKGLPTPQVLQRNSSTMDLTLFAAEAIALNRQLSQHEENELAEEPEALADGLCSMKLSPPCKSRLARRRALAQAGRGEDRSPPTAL
UniProt Q16620, whole entry, looked up: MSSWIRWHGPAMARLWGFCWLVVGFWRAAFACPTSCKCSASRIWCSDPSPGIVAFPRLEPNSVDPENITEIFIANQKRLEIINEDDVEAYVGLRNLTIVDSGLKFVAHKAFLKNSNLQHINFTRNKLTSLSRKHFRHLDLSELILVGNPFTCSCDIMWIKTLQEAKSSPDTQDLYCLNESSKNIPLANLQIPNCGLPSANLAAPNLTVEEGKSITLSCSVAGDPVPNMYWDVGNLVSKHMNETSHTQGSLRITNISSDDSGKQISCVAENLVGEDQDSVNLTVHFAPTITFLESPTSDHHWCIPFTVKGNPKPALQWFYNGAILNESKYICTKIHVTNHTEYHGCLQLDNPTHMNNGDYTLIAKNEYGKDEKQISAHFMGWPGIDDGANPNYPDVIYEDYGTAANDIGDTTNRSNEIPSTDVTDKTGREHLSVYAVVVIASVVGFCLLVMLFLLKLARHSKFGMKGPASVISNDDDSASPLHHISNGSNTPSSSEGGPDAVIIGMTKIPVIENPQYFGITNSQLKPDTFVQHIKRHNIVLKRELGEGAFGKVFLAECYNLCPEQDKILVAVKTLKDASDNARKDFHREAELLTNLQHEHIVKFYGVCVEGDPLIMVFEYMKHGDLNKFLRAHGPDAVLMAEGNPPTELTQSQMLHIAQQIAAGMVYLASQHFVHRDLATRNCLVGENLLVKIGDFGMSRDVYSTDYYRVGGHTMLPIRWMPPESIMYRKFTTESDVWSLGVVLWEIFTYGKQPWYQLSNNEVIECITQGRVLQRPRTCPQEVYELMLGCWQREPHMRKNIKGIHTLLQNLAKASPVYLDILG
UniProt Q16288, whole entry, looked up: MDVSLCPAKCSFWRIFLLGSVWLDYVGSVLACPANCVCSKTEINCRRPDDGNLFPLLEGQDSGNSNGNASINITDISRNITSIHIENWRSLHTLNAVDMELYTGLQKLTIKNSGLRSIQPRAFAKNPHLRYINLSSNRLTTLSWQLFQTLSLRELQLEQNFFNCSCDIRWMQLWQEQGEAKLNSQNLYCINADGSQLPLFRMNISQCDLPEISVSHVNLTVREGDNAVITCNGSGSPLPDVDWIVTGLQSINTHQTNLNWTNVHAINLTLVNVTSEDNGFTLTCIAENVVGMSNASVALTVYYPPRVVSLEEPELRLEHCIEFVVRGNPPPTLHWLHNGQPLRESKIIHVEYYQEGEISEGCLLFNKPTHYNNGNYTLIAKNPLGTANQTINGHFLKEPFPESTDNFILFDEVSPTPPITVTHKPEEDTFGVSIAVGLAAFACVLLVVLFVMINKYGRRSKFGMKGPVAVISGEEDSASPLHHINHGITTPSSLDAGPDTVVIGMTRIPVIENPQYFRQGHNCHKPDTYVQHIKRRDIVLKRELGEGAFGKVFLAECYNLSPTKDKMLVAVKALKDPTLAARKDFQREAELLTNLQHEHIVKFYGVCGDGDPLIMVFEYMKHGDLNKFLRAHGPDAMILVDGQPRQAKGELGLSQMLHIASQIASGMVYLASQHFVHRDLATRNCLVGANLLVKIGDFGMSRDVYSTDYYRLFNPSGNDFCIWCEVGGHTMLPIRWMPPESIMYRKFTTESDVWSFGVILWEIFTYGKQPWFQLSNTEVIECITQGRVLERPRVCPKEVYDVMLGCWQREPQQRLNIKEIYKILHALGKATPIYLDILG
UniProt O96013: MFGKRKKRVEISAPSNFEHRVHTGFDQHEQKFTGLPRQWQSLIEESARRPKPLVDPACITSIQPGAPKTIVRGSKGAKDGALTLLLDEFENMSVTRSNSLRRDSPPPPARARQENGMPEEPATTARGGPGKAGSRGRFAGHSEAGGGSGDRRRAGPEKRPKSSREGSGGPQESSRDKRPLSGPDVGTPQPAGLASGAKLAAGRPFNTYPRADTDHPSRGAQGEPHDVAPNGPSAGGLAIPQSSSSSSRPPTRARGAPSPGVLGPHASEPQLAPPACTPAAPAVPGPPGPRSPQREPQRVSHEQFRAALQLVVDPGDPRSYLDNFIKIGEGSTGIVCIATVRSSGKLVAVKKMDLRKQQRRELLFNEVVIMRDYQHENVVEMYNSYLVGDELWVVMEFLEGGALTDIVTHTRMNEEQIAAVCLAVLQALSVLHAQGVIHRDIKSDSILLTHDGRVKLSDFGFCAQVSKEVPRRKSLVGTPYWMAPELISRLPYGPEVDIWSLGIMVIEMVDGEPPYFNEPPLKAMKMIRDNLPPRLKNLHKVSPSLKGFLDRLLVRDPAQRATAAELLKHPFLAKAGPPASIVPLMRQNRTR
UniProt Q96KB5: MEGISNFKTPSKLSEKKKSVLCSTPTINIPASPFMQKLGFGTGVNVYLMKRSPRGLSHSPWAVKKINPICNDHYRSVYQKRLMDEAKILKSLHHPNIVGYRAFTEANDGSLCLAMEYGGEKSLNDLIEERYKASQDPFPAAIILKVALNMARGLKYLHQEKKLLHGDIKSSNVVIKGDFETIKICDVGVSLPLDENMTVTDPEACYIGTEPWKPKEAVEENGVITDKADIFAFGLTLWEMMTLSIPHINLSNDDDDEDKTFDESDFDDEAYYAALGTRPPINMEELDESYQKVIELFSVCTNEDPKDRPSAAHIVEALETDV
UniProt P09619, whole entry: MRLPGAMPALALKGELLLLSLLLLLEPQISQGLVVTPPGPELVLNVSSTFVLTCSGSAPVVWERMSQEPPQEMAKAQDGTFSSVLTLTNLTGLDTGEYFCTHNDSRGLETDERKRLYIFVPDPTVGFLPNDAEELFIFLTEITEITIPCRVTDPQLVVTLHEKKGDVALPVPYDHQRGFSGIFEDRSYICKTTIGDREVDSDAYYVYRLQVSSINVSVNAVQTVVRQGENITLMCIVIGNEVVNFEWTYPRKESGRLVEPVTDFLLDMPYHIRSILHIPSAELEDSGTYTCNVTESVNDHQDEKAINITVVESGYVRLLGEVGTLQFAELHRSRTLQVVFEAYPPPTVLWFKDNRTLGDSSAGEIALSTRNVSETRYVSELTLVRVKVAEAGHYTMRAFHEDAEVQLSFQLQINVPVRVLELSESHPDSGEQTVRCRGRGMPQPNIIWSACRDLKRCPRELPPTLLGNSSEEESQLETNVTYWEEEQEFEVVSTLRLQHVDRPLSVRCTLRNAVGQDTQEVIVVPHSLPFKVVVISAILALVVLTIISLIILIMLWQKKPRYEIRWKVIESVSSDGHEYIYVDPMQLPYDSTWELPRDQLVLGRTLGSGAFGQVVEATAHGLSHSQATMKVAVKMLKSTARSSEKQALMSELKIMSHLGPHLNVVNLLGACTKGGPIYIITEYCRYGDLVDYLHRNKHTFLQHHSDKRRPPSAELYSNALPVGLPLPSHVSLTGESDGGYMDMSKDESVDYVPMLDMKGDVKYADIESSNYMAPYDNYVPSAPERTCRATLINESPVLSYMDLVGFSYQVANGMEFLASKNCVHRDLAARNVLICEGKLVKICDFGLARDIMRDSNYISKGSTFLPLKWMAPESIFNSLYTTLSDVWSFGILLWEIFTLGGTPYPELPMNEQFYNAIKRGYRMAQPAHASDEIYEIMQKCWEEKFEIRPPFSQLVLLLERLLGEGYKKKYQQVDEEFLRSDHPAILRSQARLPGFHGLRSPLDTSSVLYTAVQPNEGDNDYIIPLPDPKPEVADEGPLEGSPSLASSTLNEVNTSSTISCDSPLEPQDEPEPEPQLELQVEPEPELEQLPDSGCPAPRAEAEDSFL
UniProt Q15118, whole entry, looked up: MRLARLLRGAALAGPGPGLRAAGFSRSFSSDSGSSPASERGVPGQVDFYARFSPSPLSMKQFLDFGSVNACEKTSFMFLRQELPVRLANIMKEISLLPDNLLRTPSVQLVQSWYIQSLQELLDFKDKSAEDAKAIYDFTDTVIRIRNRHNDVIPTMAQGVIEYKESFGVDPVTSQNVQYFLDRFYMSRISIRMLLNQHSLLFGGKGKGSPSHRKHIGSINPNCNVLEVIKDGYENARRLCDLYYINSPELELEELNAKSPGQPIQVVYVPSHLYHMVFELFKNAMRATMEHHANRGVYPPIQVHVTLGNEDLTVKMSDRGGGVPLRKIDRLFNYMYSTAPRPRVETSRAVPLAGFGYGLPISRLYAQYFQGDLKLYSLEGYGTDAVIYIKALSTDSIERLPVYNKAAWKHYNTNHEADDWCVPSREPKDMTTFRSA

Legend:
Experiment in all cases: kinase-Nluc reporter destabilization hit call (1 = scored as downregulated) (binary); higher = compound decreases kinase abundance
Settings in all cases: K562; 2-18 h
MAPK1 = MAPK1 (UniProt P28482)
MAPK4 = MAPK4 (UniProt P31152)
MAPKAPK2 = MAPKAPK2 (UniProt P49137)
MKNK1 = MKNK1 (UniProt Q9BUB5)
NTRK2 = NTRK2 (UniProt Q16620)
NTRK3 = NTRK3 (UniProt Q16288)
PAK4 = PAK4 (UniProt O96013)
PBK = PBK (UniProt Q96KB5)
PDGFRB = PDGFRB (UniProt P09619)
PDK1 = PDK1 (UniProt Q15118)

Measured: kinase-Nluc reporter destabilization hit call

CNC(=O)Nc1ccc(-c2cc(-c3ccnc(Nc4ccc(C)c(S(=O)(=O)N(C)C)c4)n3)ccn2)cc1 [hSMG-1 inhibitor 11e] (2.5 µM)
inactive: MAPK1 = 0 | MAPK4 = 0 | MAPKAPK2 = 0 | MKNK1 = 0 | NTRK2 = 0 | NTRK3 = 0 | PAK4 = 0 | PBK 0 | PDGFRB 0 | PDK1 = 0

CS(=O)(=O)c1ccc(-c2cnc(N)c(C(=O)Nc3ccccc3)n2)cc1 (10 µM)
inactive: MAPK1 = 0 | MAPK4 = 0 | MAPKAPK2 = 0 | MKNK1 = 0 | NTRK2 = 0 | NTRK3 = 0 | PAK4 = 0 | PBK 0 | PDGFRB 0 | PDK1 = 0

CN(CCNc1ccc2ncc(-c3ccc(C(N)=O)cc3)n2n1)C(=O)OC(C)(C)C (10 µM)
inactive: MAPK1 = 0 | MAPK4 = 0 | MAPKAPK2 = 0 | MKNK1 = 0 | NTRK2 = 0 | NTRK3 = 0 | PAK4 = 0 | PBK 0 | PDGFRB 0 | PDK1 = 0

COCCOc1ccc(-c2cn(-c3ccccc3)c3nc[nH]c(=O)c23)cc1 (10 µM)
inactive: MAPK1 = 0 | MAPK4 = 0 | MAPKAPK2 = 0 | MKNK1 = 0 | NTRK2 = 0 | NTRK3 = 0 | PAK4 = 0 | PBK 0 | PDGFRB 0 | PDK1 = 0

COCCOc1cnc(Sc2cc(C)c(-c3csc(NC(=O)c4ccncc4)n3)c(C)c2)cn1 [T-1101 (tosylate)] (2.5 µM)
inactive: MAPK1 = 0 | MAPK4 = 0 | MAPKAPK2 = 0 | MKNK1 = 0 | NTRK2 = 0 | NTRK3 = 0 | PAK4 = 0 | PBK 0 | PDGFRB 0 | PDK1 = 0

Sorted by SMILES length (largest number first): 3 of the compounds above.
CNC(=O)Nc1ccc(-c2cc(-c3ccnc(Nc4ccc(C)c(S(=O)(=O)N(C)C)c4)n3)ccn2)cc1 [hSMG-1 inhibitor 11e] (2.5 µM)
inactive: MAPK1 = 0 | MAPK4 = 0 | MAPKAPK2 = 0 | MKNK1 = 0 | NTRK2 = 0 | NTRK3 = 0 | PAK4 = 0 | PBK 0 | PDGFRB 0 | PDK1 = 0

CN(CCNc1ccc2ncc(-c3ccc(C(N)=O)cc3)n2n1)C(=O)OC(C)(C)C (10 µM)
inactive: MAPK1 = 0 | MAPK4 = 0 | MAPKAPK2 = 0 | MKNK1 = 0 | NTRK2 = 0 | NTRK3 = 0 | PAK4 = 0 | PBK 0 | PDGFRB 0 | PDK1 = 0

CS(=O)(=O)c1ccc(-c2cnc(N)c(C(=O)Nc3ccccc3)n2)cc1 (10 µM)
inactive: MAPK1 = 0 | MAPK4 = 0 | MAPKAPK2 = 0 | MKNK1 = 0 | NTRK2 = 0 | NTRK3 = 0 | PAK4 = 0 | PBK 0 | PDGFRB 0 | PDK1 = 0

Further results.

Cc1c(CN2CCN(S(C)(=O)=O)CC2)sc2c(N3CCOCC3)nc(-c3cnc(N)nc3)nc12 (2.5 µM)
inactive: MAPK1 = 0 | MAPK4 = 0 | MAPKAPK2 = 0 | MKNK1 = 0 | NTRK2 = 0 | NTRK3 = 0 | PAK4 = 0 | PBK 0 | PDGFRB 0 | PDK1 = 0

NCc1ccc(Nc2ncc(F)c(Nc3ccccc3)n2)cc1 (10 µM)
inactive: MAPK1 = 0 | MAPK4 = 0 | MAPKAPK2 = 0 | MKNK1 = 0 | NTRK2 = 0 | NTRK3 = 0 | PAK4 = 0 | PBK 0 | PDGFRB 0 | PDK1 = 0

C[C@@H]1O[C@@H](O[C@H]2[C@H](Oc3cc(O)c4c(=O)cc(-c5ccc(O)cc5)oc4c3)O[C@H](CO)[C@@H](O)[C@@H]2O)[C@H](O)[C@H](O)[C@H]1O [Rhoifolin] (10 µM)
inactive: MAPK1 = 0 | MAPK4 = 0 | MAPKAPK2 = 0 | MKNK1 = 0 | NTRK2 = 0 | NTRK3 = 0 | PAK4 = 0 | PBK 0 | PDGFRB 0 | PDK1 = 0

C[C@]1(O)CCC[C@@H]1n1c(=O)c(C(F)F)cc2cnc(NC3CCN(S(C)(=O)=O)CC3)nc21 (10 µM)
inactive: MAPK1 = 0 | MAPK4 = 0 | MAPKAPK2 = 0 | MKNK1 = 0 | NTRK2 = 0 | NTRK3 = 0 | PAK4 = 0 | PBK 0 | PDGFRB 0 | PDK1 = 0

COC1(c2sc3c(N4CCOCC4)nc(-c4cnc(N)nc4)nc3c2C)COC1 (2.5 µM)
inactive: MAPK1 = 0 | MAPK4 = 0 | MAPKAPK2 = 0 | MKNK1 = 0 | NTRK2 = 0 | NTRK3 = 0 | PAK4 = 0 | PBK 0 | PDGFRB 0 | PDK1 = 0

COC1(C(=O)N2Cc3nc(Cl)nc(N[C@H](C)c4cc(N)cc(C(F)(F)F)c4)c3C2)CCOCC1 (10 µM)
inactive: MAPK1 = 0 | MAPK4 = 0 | MAPKAPK2 = 0 | MKNK1 = 0 | NTRK2 = 0 | NTRK3 = 0 | PAK4 = 0 | PBK 0 | PDGFRB 0 | PDK1 = 0

CNc1nc(Nc2cnn(C3CCN(C4COC4)CC3F)c2Cl)ncc1C(F)(F)F (stereo not given) (10 µM)
inactive: MAPK1 = 0 | MAPK4 = 0 | MAPKAPK2 = 0 | MKNK1 = 0 | NTRK2 = 0 | NTRK3 = 0 | PAK4 = 0 | PBK 0 | PDGFRB 0 | PDK1 = 0

Nc1ncnc2c1ncn2[C@@H]1O[C@H](CO)C[C@H]1O [Cordycepin] (10 µM)
inactive: MAPK1 = 0 | MAPK4 = 0 | MAPKAPK2 = 0 | MKNK1 = 0 | NTRK2 = 0 | NTRK3 = 0 | PAK4 = 0 | PBK 0 | PDGFRB 0 | PDK1 = 0

Cc1c(NC(=O)OC[C@@H]2COCCN2)cn2ncnc(Nc3ccc4c(cnn4Cc4cccc(F)c4)c3)c12 (10 µM)
inactive: MAPK1 = 0 | MAPK4 = 0 | MAPKAPK2 = 0 | MKNK1 = 0 | NTRK2 = 0 | NTRK3 = 0 | PAK4 = 0 | PBK 0 | PDGFRB 0 | PDK1 = 0

C/C(=C1/C(=O)Nc2ccc(NC(N)=O)cc21)c1ccc[nH]1 (10 µM)
inactive: MAPK1 = 0 | MAPK4 = 0 | MAPKAPK2 = 0 | MKNK1 = 0 | NTRK2 = 0 | NTRK3 = 0 | PAK4 = 0 | PBK 0 | PDGFRB 0 | PDK1 = 0

CN1CCN(c2ccc(C(=O)Nc3cc(-c4cccc(NS(=O)(=O)c5ccccc5)c4)[nH]n3)cc2)CC1 [BPR1J-097 Hydrochloride] (2.5 µM)
inactive: MAPK1 = 0 | MAPK4 = 0 | MAPKAPK2 = 0 | MKNK1 = 0 | NTRK2 = 0 | NTRK3 = 0 | PAK4 = 0 | PBK 0 | PDGFRB 0 | PDK1 = 0

CC(C)NC(=O)N1CC[C@H](NC2=Nc3cc(F)ccc3N(CC(F)F)c3ccc(Cl)cc32)C1 (10 µM)
inactive: MAPK1 = 0 | MAPK4 = 0 | MAPKAPK2 = 0 | MKNK1 = 0 | NTRK2 = 0 | NTRK3 = 0 | PAK4 = 0 | PBK 0 | PDGFRB 0 | PDK1 = 0

Cc1cc([C@H](C)Nc2ccccc2)c2oc(N3CCOCC3)cc(=O)c2c1 (10 µM)
inactive: MAPK1 = 0 | MAPK4 = 0 | MAPKAPK2 = 0 | MKNK1 = 0 | NTRK2 = 0 | NTRK3 = 0 | PAK4 = 0 | PBK 0 | PDGFRB 0 | PDK1 = 0

COc1cc2c[n+](C)c3c4cc5c(cc4ccc3c2cc1OC)OCO5 [Nitidine (chloride)] (2 µM)
inactive: MAPK1 = 0 | MAPK4 = 0 | MAPKAPK2 = 0 | MKNK1 = 0 | NTRK2 = 0 | NTRK3 = 0 | PAK4 = 0 | PBK 0 | PDGFRB 0 | PDK1 = 0

O=C(Nc1cc(Oc2cc(F)c(NC(=O)C3(C(=O)Nc4ccc(F)cc4)CC3)cc2F)ccn1)C1CC1 [Altiratinib] (10 µM)
inactive: MAPK1 = 0 | MAPK4 = 0 | MAPKAPK2 = 0 | MKNK1 = 0 | NTRK2 = 0 | NTRK3 = 0 | PAK4 = 0 | PBK 0 | PDGFRB 0 | PDK1 = 0

Cc1cc(Nc2cc3ncccc3c(N[C@@H]3C[C@H]4CC[C@@H](C3)N4CCC#N)n2)n[nH]1 [Izencitinib] (10 µM)
inactive: MAPK1 = 0 | MAPK4 = 0 | MAPKAPK2 = 0 | MKNK1 = 0 | NTRK2 = 0 | NTRK3 = 0 | PAK4 = 0 | PBK 0 | PDGFRB 0 | PDK1 = 0

CC(=O)c1c(C)c2cnc(Nc3ccc(N4CCN(CCCCNC(=O)COc5cccc6c5C(=O)N(C5CCC(=O)NC5=O)C6=O)CC4)cn3)nc2n(C2CCCC2)c1=O (stereo not given) (10 µM)
inactive: MAPK1 = 0 | MAPK4 = 0 | MAPKAPK2 = 0 | MKNK1 = 0 | NTRK2 = 0 | NTRK3 = 0 | PAK4 = 0 | PBK 0 | PDGFRB 0 | PDK1 = 0

CCN(CC)c1ccc2cc(C(=O)N3CCN(C(=O)C4=Cc5c(Br)cccc5S4(=O)=O)CC3)c(=O)oc2c1 (2 µM)
inactive: MAPK1 = 0 | MAPK4 = 0 | MAPKAPK2 = 0 | MKNK1 = 0 | NTRK2 = 0 | NTRK3 = 0 | PAK4 = 0 | PBK 0 | PDGFRB 0 | PDK1 = 0

CC(C)=CC(=O)CCC(=O)N1CCN(Cc2cc3nc(-c4cccc5[nH]ncc45)nc(N4CCOCC4)c3s2)CC1 (10 µM)
inactive: MAPK1 = 0 | MAPK4 = 0 | MAPKAPK2 = 0 | MKNK1 = 0 | NTRK2 = 0 | NTRK3 = 0 | PAK4 = 0 | PBK 0 | PDGFRB 0 | PDK1 = 0

COc1cc2ncnc(Nc3cccc(Cl)c3)c2cc1OC (10 µM)
inactive: MAPK1 = 0 | MAPK4 = 0 | MAPKAPK2 = 0 | MKNK1 = 0 | NTRK2 = 0 | NTRK3 = 0 | PAK4 = 0 | PBK 0 | PDGFRB 0 | PDK1 = 0

CC(C)CN[C@H]1CS(=O)(=O)C[C@@H]1S(=O)(=O)c1ccc(Cl)cc1 (10 µM)
inactive: MAPK1 = 0 | MAPK4 = 0 | MAPKAPK2 = 0 | MKNK1 = 0 | NTRK2 = 0 | NTRK3 = 0 | PAK4 = 0 | PBK 0 | PDGFRB 0 | PDK1 = 0

c1cc2c(cc1O[C@H]1OC[C@H]3[C@@H]1CO[C@@H]3c1ccc3c(c1)OCO3)OCO2 [Sesamolin] (10 µM)
inactive: MAPK1 = 0 | MAPK4 = 0 | MAPKAPK2 = 0 | MKNK1 = 0 | NTRK2 = 0 | NTRK3 = 0 | PAK4 = 0 | PBK 0 | PDGFRB 0 | PDK1 = 0

Cn1c(=O)c(F)c(Nc2ccc(I)cc2F)c2c(=O)n(C[C@@H](O)CO)cnc21 (10 µM)
inactive: MAPK1 = 0 | MAPK4 = 0 | MAPKAPK2 = 0 | MKNK1 = 0 | NTRK2 = 0 | NTRK3 = 0 | PAK4 = 0 | PBK 0 | PDGFRB 0 | PDK1 = 0
